“And” between values parts separate entries of the source, which are not always exact repeats. Equal entries are not always repeated. At least one peptide structure holds a part that was inferred or is arguable (an end, a ring closure or a residue).
System: S. aureus
Assay: MIC geometric mean, 20 isolates of S. aureus
Format: cell-based, Staphylococcus aureus
Conditions: geometric mean of MIC from 20 different isolates of S. aureus; 24 hours at 37° C.

SMILES | MICGM S. aureus
CC[C@@H](C)[C@@H](NC(=O)CNC(=O)[C@@H](CCCNC(=N)N)NC(=O)[C@@H](Cc1ccccc1)NC(=O)[C@H](NC(=O)[C@@H](Cc1c[nH]cn1)NC(=O)[C@@H](Cc1c[nH]cn1)NC(=O)[C@@H](Cc1ccccc1)NC(=O)[C@H](N)Cc1ccccc1)[C@H](C)CC)C(=O)N[C@@H](C(=O)N[C@H](Cc1c[nH]cn1)C(=O)N[C@@H](C(=O)NCC(=O)N[C@H](CCCCN)C(=O)N[C@@H](C(=O)N[C@@H](C(=O)N[C@H](Cc1c[nH]cn1)C(=O)N[C@H](CCCNC(=N)N)C(=O)N[C@H](CC(C)C)C(=O)N[C@@H](C(=O)N[C@@H](C(=O)NCC(N)=O)[C@H](C)O)C(C)C)[C@H](C)CC)[C@H](C)O)C(C)C)C(C)C [D-Piscidin 1, reference compound] | 3.1 µM
CSCC[C@@H](NC(=O)[C@@H](Cc1c[nH]c2ccccc12)NC(=O)[C@@H](CC(C)C)NC(=O)[C@@H](C)N)C(=O)N[C@@H](C(=O)N[C@H](CC(C)C)C(=O)N[C@H](CC(C)C)C(=O)N[C@H](CCCCN)C(=O)N[C@H](CCCCN)C(=O)N[C@@H](C(=O)N[C@H](CC(C)C)C(=O)N[C@H](CCCCN)C(=O)N[C@H](C)C(=O)N[C@H](C)C(=O)N[C@H](C)C(=O)N[C@H](CCCCN)C(=O)N[C@H](C)C(=O)N[C@H](CC(C)C)C(=O)N[C@H](CC(N)=O)C(=O)N[C@H](C)C(=O)N[C@@H](C(=O)N[C@H](CC(C)C)C(=O)N[C@@H](C(=O)NCC(=O)N[C@H](C)C(=O)N[C@H](CC(N)=O)C(=O)N[C@H](C)C(N)=O)C(C)C)C(C)C)C(C)C)[C@H](C)O [D-Dermaseptin S4, reference compound] | 5.8 µM
CC[C@@H](C)[C@@H](NC(=O)CNC(=O)[C@@H](CCCNC(=N)N)NC(=O)[C@@H](Cc1ccccc1)NC(=O)[C@H](NC(=O)[C@@H](Cc1c[nH]cn1)NC(=O)[C@@H](Cc1c[nH]cn1)NC(=O)[C@@H](Cc1ccccc1)NC(=O)[C@H](N)Cc1ccccc1)[C@H](C)CC)C(=O)N[C@@H](C(=O)N[C@H](Cc1c[nH]cn1)C(=O)N[C@H](CCCCN)C(=O)NCC(=O)N[C@H](CCCCN)C(=O)N[C@@H](C(=O)N[C@@H](C(=O)N[C@H](Cc1c[nH]cn1)C(=O)N[C@H](CCCNC(=N)N)C(=O)N[C@H](CC(C)C)C(=O)N[C@@H](C(=O)N[C@@H](C(=O)NCC(N)=O)[C@H](C)O)C(C)C)[C@H](C)CC)[C@H](C)O)C(C)C [D-Piscidin 1 V12K] | 173 µM and 173.3 µM
CC[C@@H](C)[C@@H](NC(=O)[C@@H](Cc1c[nH]cn1)NC(=O)[C@@H](Cc1c[nH]cn1)NC(=O)[C@@H](Cc1ccccc1)NC(=O)[C@H](N)Cc1ccccc1)C(=O)N[C@H](Cc1ccccc1)C(=O)N[C@H](CCCNC(=N)N)C(=O)NCC(=O)N[C@H](CCCCN)C(=O)N[C@@H](C(=O)N[C@H](Cc1c[nH]cn1)C(=O)N[C@@H](C(=O)NCC(=O)N[C@H](CCCCN)C(=O)N[C@@H](C(=O)N[C@@H](C(=O)N[C@H](Cc1c[nH]cn1)C(=O)N[C@H](CCCNC(=N)N)C(=O)N[C@H](CC(C)C)C(=O)N[C@@H](C(=O)N[C@@H](C(=O)NCC(N)=O)[C@H](C)O)C(C)C)[C@H](C)CC)[C@H](C)O)C(C)C)C(C)C [D-Piscidin 1 I9K] | 180 µM and 180.4 µM

— patent US20190202877A1, “DERMASEPTIN-TYPE AND PISCIDIN-TYPE ANTIMICROBIAL PEPTIDES” (THE REGENTS OF THE UNIVERSITY OF COLORADO, a body corporate, priority 2014, published 2019)
